Read-outs that look alike come from different tables or passages of the source.
COc1ccc2cc([C@H](C)C(=O)O)ccc2c1 [naproxen]
Chemical stability under production (HPLC) (naproxen-PEG 3350 dosage forms subjected to 70° C. for 15 min): stable | Chemical stability under production (HPLC) (naproxen-Pluronic F38 dosage forms subjected to 70° C. for 15 min): stable
